For 1 substance, binding results are on record in US20120022129A1, “Targeting of Histone Deacetylase 2, Protein Kinase CK2, and Nuclear Factor NRF2 For Treatment of Inflammatory Diseases” (priority 2008, published 2012).

The chains behind the UniProt entries cited, without tags or fusion partners. Where a name states a change or a piece, a line headed by the entry shows the natural chain unless it says otherwise.
UniProt Q92769: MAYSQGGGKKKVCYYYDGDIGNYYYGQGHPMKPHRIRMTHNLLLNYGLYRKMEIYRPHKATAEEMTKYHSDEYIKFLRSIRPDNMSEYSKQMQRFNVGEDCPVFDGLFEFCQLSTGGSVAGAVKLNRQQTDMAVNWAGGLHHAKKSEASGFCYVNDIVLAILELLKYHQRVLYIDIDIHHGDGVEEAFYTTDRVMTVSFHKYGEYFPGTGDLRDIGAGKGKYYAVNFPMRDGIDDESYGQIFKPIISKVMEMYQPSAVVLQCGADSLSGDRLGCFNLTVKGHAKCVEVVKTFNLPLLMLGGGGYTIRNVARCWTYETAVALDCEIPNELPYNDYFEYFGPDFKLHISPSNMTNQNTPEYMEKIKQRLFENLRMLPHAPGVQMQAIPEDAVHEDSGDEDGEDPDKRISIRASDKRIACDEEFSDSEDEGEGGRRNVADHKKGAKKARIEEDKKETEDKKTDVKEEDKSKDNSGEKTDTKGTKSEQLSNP
UniProt Q13547: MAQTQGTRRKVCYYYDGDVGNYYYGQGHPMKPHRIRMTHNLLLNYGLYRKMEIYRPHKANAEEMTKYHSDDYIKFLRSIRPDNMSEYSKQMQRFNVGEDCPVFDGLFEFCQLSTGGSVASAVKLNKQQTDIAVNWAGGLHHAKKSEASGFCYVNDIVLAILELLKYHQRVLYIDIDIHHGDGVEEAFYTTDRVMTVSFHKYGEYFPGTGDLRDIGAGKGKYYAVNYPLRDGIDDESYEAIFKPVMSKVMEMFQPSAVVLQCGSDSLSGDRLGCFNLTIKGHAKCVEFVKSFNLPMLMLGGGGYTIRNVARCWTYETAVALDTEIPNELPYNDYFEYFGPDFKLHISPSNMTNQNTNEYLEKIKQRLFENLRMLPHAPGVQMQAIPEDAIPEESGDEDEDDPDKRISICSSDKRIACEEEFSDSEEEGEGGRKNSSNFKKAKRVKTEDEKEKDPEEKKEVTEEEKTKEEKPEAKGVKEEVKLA

For the assay, the target named is flag-tagged HDAC2 1-400 amino acid mutant (Homo sapiens (Human)) (UniProt Q92769). As to the kind of experiment: co-immunoprecipitation with anti-flag from CSE-treated H292 cells, western blot (FIG. 19D).

Results are given in words; binding and its absence hold for the method and conditions named. In cells and extracts the contact can be indirect. Some entries that bind do so weakly or less than the wild type.

Consider “HDAC1 (from UniProt Q13547 1-482) (enzyme)”, for which the binding result is “binds”.
